Consider one molecule from patent publication US20230401449A1, “MEANS AND METHODS FOR CLASSIFYING MICROBES” (UNIVERSITÉ DE LAUSANNE, priority 2020, published 2023).

This data set concerns Lake Geneva microbial community. Put plainly: 14C-labeled substrate incorporation, biomass yield of lake water community. It is filed as cell-based. The note with it: 3 days incubation.

As to `Oc1ccccc1` [Phenol, phenol], the “14C based biomass yield” value is listed as 0.135 ± 0.027 g/g (substrate 0.1 mg/l as sole carbon source), 0.151 ± 0.052 g/g (substrate 1.0 mg/l as sole carbon source) and 0.166 ± 0.042 g/g (substrate 10 mg/l as sole carbon source).
